Reference: paper PMC5893762
These are yes or no findings as the source states them, for the method shown. Binding seen in cells or lysates may run through a third protein. Sequences can lack the tags named with a protein.

Target: HA-MGA_0676^ΔSNC (Mycoplasma gallisepticum (strain BJ44T))
Assay: co-IP; HEK293T cells co-transfected with HA and Myc plasmids, 24 h; non-denaturing lysate; IP with anti-HA antibody and protein A/G agarose; blot with anti-HA or anti-Myc

B1: Myc-NAE (NEDD8-activating enzyme E1 regulatory subunit, expressed in HEK293T cells) (protein, UniProt Q5ZIE6 1-535)
chain: MAQPGRASLKEQRYDRQLRLWGDHGQEALESAHVCVINATATGTEILKNLVLPGIGSFTIVDGNRVSGEDVGNNFFLQKSHIGQSRAQSATELLQELNNDVSGNFVEESPETLLDNDPSFFNRFNLVVATQLSESTVLRLAELLWNSNIPLLICRTYGLVGYMRIIIKEHPVVESHPDNALEDLRLDKQFPELTEHIQSYDLDHMDKKDHSHTPWIVIVAKYLTKWFNEKSDQLPKSYKEKEAFRQLIRQGILKNENGTPEDEENFEEAIKNVNTALNTTKIPRCIEEIFNDDCCVNLTEQSPSFWILVRAVKEFVANEGQGCLPVRGTIPDMIADSSKFIKLQNVYREKAKRDIAAVGNHAAKLLQSLGKAPESISERELKLLCSNSAFLRVVRCRSLSEEYGLNTFNKDEIISNMDNPDSEVVLYLMLRAVDRFYKQHGRYPGVYNYQVEDDIGKLKSCLTSFLQEHGLSVLVKDDYVHEFCRYGAAEPHAIAAFMGGAAAQEIIKVITGQFVIFNNTYIYSGMSQTSATFQL
  binding: no binding
